Data as given in PubChem BioAssay AID493246 (Drosophila RNAi Screening Center, 2011)

Test: 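Genes fly cells need to grow and stay alive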 (primary screen)
System: Drosophila Kc and S2R+ cells
Reagent: long dsRNA against Drosophila genes
Measured: 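Cell number per well after knock-down, printed as raw plate values; calls were based on per-plate z-scores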
Direction: Kc cell number and S2R+ cell number: higher = more cells remaining
Call rule: 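Counted as a hit if cell number falls by a z-score of at least 3 within its plate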
In all, the deposit lists about 21,000 reagents; below is an unselected part of those with a known target gene and a result. Over the whole deposit, 429 (2%) are marked active. 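Values are raw and not normalised between plates; calls rest on per-plate z-scores that were not deposited.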 Entries without a mark were called inactive. The numbers tell different reagents against one gene apart. The record does not give: the amount of reagent, the time to read-out.

gene | dsRNA no. | Kc cell number, rep 1 | Kc cell number, rep 2 | S2R+ cell number, rep 1 | S2R+ cell number, rep 2
cni | 1 | 1.80e6 | 1.87e6 | 1.19e6 | 1.34e6
gammaTub23C | 1 | 1.33e6 | 1.36e6 | 1.03e6 | 1.16e6
Syt7 | 1 | 1.58e6 | 1.57e6 | 1.09e6 | 1.19e6
Syt7 | 2 | 1.64e6 | 1.64e6 | 1.06e6 | 1.15e6
ZnT41F | 1 | 1.48e6 | 1.53e6 | 1.13e6 | 1.15e6
CG4328 | 1 | 1.11e6 (active) | 1.12e6 | 7.08e5 | 8.45e5
t-Grip84 | 1 | 1.57e6 | 1.51e6 | 1.15e6 | 1.21e6
CG13613 | 1 | 1.68e6 | 1.65e6 | 1.08e6 | 1.13e6

3 entries from above, ordered by “Kc cell number, rep 1”, low to high.
gene | dsRNA no. | Kc cell number, rep 1 | Kc cell number, rep 2 | S2R+ cell number, rep 1 | S2R+ cell number, rep 2
gammaTub23C | 1 | 1.33e6 | 1.36e6 | 1.03e6 | 1.16e6
Syt7 | 1 | 1.58e6 | 1.57e6 | 1.09e6 | 1.19e6
Syt7 | 2 | 1.64e6 | 1.64e6 | 1.06e6 | 1.15e6

Additional results:
gene | dsRNA no. | Kc cell number, rep 1 | Kc cell number, rep 2 | S2R+ cell number, rep 1 | S2R+ cell number, rep 2
CG17134 | 1 | 1.38e6 | 1.57e6 | 1.20e6 | 1.33e6
Datp | 1 | 1.49e6 | 1.49e6 | 9.91e5 | 1.08e6
trio | 1 | 1.51e6 | 1.44e6 | 9.97e5 | 1.15e6
trio | 2 | 1.10e6 | 1.18e6 | 7.24e5 | 7.68e5
trio | 3 | 1.60e6 | 1.37e6 | 9.80e5 | 1.40e6
Sdc | 1 | 1.48e6 | 1.53e6 | 1.14e6 | 3.13e5
sowi | 1 | 1.52e6 | 1.69e6 | 1.22e6 | 1.29e6
AMPdeam | 1 | 1.45e6 | 1.58e6 | 1.07e6 | 1.16e6
AMPdeam | 2 | 6.06e5 | – | 9.39e5 | –
AMPdeam | 3 | 1.70e6 | 1.72e6 | 1.08e6 | 1.19e6
AMPdeam | 4 | 1.59e6 | 1.73e6 | 1.16e6 | 1.25e6
CG15237 | 1 | 1.66e6 | 1.70e6 | 1.26e6 | 1.37e6
ksr | 1 | 1.31e6 | 1.49e6 | 1.26e6 | 1.34e6
CG14383 | 1 | 1.45e6 | 1.37e6 | 9.84e5 | 1.05e6
CheB42c | 1 | 1.54e6 | 1.61e6 | 1.28e6 | 1.38e6
usp | 1 | 1.67e6 | 1.70e6 | 1.14e6 | 1.25e6
